Assay results from article PMC10943084.

Sequences of proteins named here, by UniProt entry; tags and fusion partners are left off. A change or cut given only in a name is not applied to a line headed by its entry.
UniProt K4BE38: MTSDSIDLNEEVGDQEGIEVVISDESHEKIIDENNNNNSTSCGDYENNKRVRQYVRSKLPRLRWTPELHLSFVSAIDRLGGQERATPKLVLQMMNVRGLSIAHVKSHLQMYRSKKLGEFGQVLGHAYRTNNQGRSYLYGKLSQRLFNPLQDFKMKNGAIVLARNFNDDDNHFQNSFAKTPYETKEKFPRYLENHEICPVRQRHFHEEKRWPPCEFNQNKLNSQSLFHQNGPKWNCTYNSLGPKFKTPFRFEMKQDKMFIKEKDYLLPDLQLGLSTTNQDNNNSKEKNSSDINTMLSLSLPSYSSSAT
UniProt A0A3Q7F340: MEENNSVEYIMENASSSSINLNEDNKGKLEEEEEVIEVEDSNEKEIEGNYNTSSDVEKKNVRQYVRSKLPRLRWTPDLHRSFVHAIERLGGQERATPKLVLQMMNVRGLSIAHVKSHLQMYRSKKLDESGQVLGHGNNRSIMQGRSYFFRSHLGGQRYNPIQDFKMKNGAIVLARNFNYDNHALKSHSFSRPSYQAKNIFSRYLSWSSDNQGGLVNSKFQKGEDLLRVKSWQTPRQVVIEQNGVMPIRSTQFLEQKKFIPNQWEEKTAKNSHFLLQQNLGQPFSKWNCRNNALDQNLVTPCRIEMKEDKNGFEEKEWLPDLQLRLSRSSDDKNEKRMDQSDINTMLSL

What was measured:
[1] = target: GST-TPL2 (tomato (Solanum lycopersicum)); assay: pull-down; GST fusion protein held on GST MAGIC beads, incubated with His fusion protein for 2.5 h at 4 °C; 50 mM HEPES pH 7.5, 50 mM NaCl, 10 mM EDTA, 0.2% Triton X-100; blot with anti-His and anti-GST; both purified
[2] = target: BD-GCR1 (GLAND CELL REPRESSOR 1, yeast two-hybrid fusion) (tomato (Solanum lycopersicum)); assay: two-hybrid; Matchmaker GAL4 system; pairwise, pGBKT7 bait and pGADT7 prey co-transformed into yeast AH109; three dilutions on SD/-Ade/-His/-Leu/-Trp for four days
[3] = target: GCR2 (GLAND CELL REPRESSOR 2, yeast two-hybrid fusion) (tomato (Solanum lycopersicum)) (UniProt K4BE38); assay: as above

Substance	binding [1]	binding [2]	binding [3]
His-GCR1 (from UniProt A0A3Q7F340)	binds		
SlTPL4 (yeast two-hybrid fusion) (from UniProt A0A3Q7FRL5)		binds weakly	binds weakly
His-GCR2 (from UniProt K4BE38)	binds		

Results are given in words; binding and its absence hold for the method and conditions named. A result given as binding can be weak or reduced; the word gives no strength.
